Among the data in paper PMC11071649, “Synthesis and Selective Anticancer Activity Evaluation of 2-phenylacrylonitrile Derivatives as Tubulin Inhibitors” (Current Medicinal Chemistry, 2024) are IC50 values, retold here.

Each structure is given as a SMILES string.

Type in all cases: cell-based
Experiment [1] relates to MCF-7 breast cancer cell. Put plainly: MTT anti-proliferative assay, MCF-7. The note with it: Homo sapiens, MCF7, 48 h, read-out: IC50 MCF-7. The procedure:
(§1) The anti-proliferation activities of the synthesized analogs were assessed by an in vitro MTT assay conducted on thirteen human cell lines. Their cytotoxic activities were evaluated by measuring the inhibition of net cell growth. […]
(§2) 1.6. Cell lines and cell culture
(§3) MTT was purchased from Sigma-Aldrich Co. (St. Louis, MO, USA). The PI and Annexin V-FITC apoptosis detection kit were purchased from Invitrogen (Eugene, OR, USA). All human cell lines were used in this study. […]
(§4) cell, MCF-7 breast cancer cell, MCF-10A normal breast cell, Raji B lymphoblastoid cell and diffuse large B-cell lymphoma SU-DHL-10 cell were initially purchased from American Type Culture Collection (ATCC, Manassas, Virginia). media, DMEM, and FBS were provided from Gibco Company.
(§5) 1.7. Cell growth inhibition assay (MTT assay)
(§6) The experiment was carried out according to the method of reference. Briefly, cells were plated in 96-well plates at a den- […]
(§7) the anti-proliferative activities were determined by MTT assay. […]
(§8) (Becton-Dickinson, Franklin Lakes, NJ). […]

In experiment [2] the test system is MGC-803 late stage differentiation gastric cancer cell. Put plainly: MTT anti-proliferative assay, MGC-803. The note with it: Homo sapiens, MGC-803, 48 h, read-out: IC50 MGC-803. The procedure:
as §1, §2, §3, §4, §5, §6, §7, §8
On the technique in general: Tetrazolium assays rely on reduction of a dye to a coloured formazan, in cell work by metabolically active cells.

For experiment [3], the system named is BEL-7402 liver cancer cell. The experiment in a line: MTT anti-proliferative assay, BEL-7402. The note with it: Homo sapiens, Bel-7402, 48 h, read-out: IC50 BEL-7402. The procedure: as §1, §2, §3, §4, §5, §6, §7, §8
For experiment [4], the system named is diffuse large B-cell lymphoma SU-DHL-10 cell. Put plainly: MTT anti-proliferative assay, SU-DHL-10. Conditions: Homo sapiens, SU-DHL10, 48 h, read-out: IC50 SU-DHL-10. The procedure:
as §1, §2, §3, §4, §5, §6, §7, §8

The subject of experiment [5] is L-02 normal liver cell. Put plainly: MTT assay, L-02 normal cells. Conditions: Homo sapiens, 48 h, read-out: IC50 L-02. How it is done:
as §1, §2, §3, §4, §5, §6, §7, §8

For experiment [6], the system named is Raji B lymphoblastoid cell. Put plainly: MTT anti-proliferative assay, Raji. Conditions: Homo sapiens, 48 h, read-out: IC50 Raji. The procedure:
as §1, §2, §3, §4, §5, §6, §7, §8

The term IC50 denotes the concentration that inhibits the measured activity by half. Consider `COc1cc2c(c(OC)c1OC)-c1ccc(OC)c(=O)cc1[C@@H](NC(C)=O)CC2` [Colchicine, colchicine, reference compound], for which the IC50 in experiment [1] was 600 ± 300 nM; in experiment [2], 130 ± 10 nM; in experiment [3], 20 ± 1 nM; in experiment [4], 290 ± 1 nM; in experiment [5], 400 ± 20 nM; in experiment [6], 300 ± 100 nM.
